# According to the supplement of paper PMC4604168 (melanoma cell lines):
# This is one part of the list. Repeats are few or missing, and single values can be far off.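 Cells were imaged in 1,536-well plates, and nuclei stained with an antibody against cleaved PARP were counted against all DNA-stained nuclei to give the apoptosis fraction. Screening doses were chosen to leave most cells alive, and resting and induced cleaved-PARP levels differ strongly between cell lines.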
# Tested on: CBRC017 (line from a melanoma biopsy)
# Test: cleaved PARP positive nuclei fraction relative to DMSO control; melanoma cells; higher = more apoptosis
# Settings: library dose: low library concentration; 72 h
row,SMILES,cleaved PARP positive nuclei fraction [%]
1,"O=C(/C=C/c1cccnc1)NCCCCC1CCN(C(=O)c2ccccc2)CC1 + C[As](C)SC[C@H](NC(=O)CC[C@H](N)C(=O)O)C(=O)NCC(=O)O [Darinaparsin] (first compound 0.01 µM, partner dose 0.4 µM)",291
2,"OCc1c[nH]c2ccccc12 [Indole-3-carbinol] + C[As](C)SC[C@H](NC(=O)CC[C@H](N)C(=O)O)C(=O)NCC(=O)O [Darinaparsin] (first compound 0.8 µM, partner dose 0.4 µM)",112
3,"Nc1ccn([C@@H]2O[C@H](CO)[C@@H](O)C2(F)F)c(=O)n1 [gemcitabine] + C[As](C)SC[C@H](NC(=O)CC[C@H](N)C(=O)O)C(=O)NCC(=O)O [Darinaparsin] (first compound 0.0004 µM, partner dose 0.4 µM)",235
4,"Cn1c(=O)n(-c2ccc(C(C)(C)C#N)cc2)c2c3cc(-c4cnc5ccccc5c4)ccc3ncc21 + C[As](C)SC[C@H](NC(=O)CC[C@H](N)C(=O)O)C(=O)NCC(=O)O [Darinaparsin] (first compound 0.004 µM, partner dose 0.4 µM)",96.6
5,"N.N.[Cl][Pt][Cl] [cisplatin] + Cc1nc(Nc2ncc(C(=O)Nc3c(C)cccc3Cl)s2)cc(N2CCN(CCO)CC2)n1 [dasatanib] (first compound 1.6 µM, partner dose 0.004 µM)",133
6,"N.N.[Cl][Pt][Cl] [cisplatin] + C[C@@H](Oc1cc(-c2cnn(C3CCNCC3)c2)cnc1N)c1c(Cl)ccc(F)c1Cl [Crizotinib] (first compound 1.6 µM, partner dose 0.2 µM)",124
7,"Cn1cc(C2=C(c3cn(C4CCN(Cc5ccccn5)CC4)c4ccccc34)C(=O)NC2=O)c2ccccc21 [Enzastaurin] + O=C(O)[C@@H]1[O][Sb](=[O])([O][Sb]2(=[O])[O][C@H]([C@H](O)CO)[C@H](O)[C@H](C(=O)O)[O]2)[O][C@H]([C@H](O)CO)[C@@H]1O [stibogluconate] (first compound 0.8 µM, partner dose 2 µM)",118
8,"C[C@]12O[C@H](C[C@]1(O)CO)n1c3ccccc3c3c4c(c5c6ccccc6n2c5c31)CNC4=O [Lestaurtinib] + Nc1ccn([C@@H]2O[C@H](CO)[C@@H](O)C2(F)F)c(=O)n1 [gemcitabine] (first compound 0.004 µM, partner dose 0.0004 µM)",115
9,"N.N.[Cl][Pt][Cl] [cisplatin] + CN1CCN(c2ccc3nc(-c4c(N)c5c(F)cccc5[nH]c4=O)[nH]c3c2)CC1 [Dovitinib] (first compound 1.6 µM, partner dose 0.1 µM)",129
10,"NC1(c2ccc(-c3nc4ccn5c(=O)[nH]nc5c4cc3-c3ccccc3)cc2)CCC1 + C[As](C)SC[C@H](NC(=O)CC[C@H](N)C(=O)O)C(=O)NCC(=O)O [Darinaparsin] (first compound 0.4 µM, partner dose 0.4 µM)",108

# Single entries from above.
# O=C(/C=C/c1cccnc1)NCCCCC1CCN(C(=O)c2ccccc2)CC1 + C[As](C)SC[C@H](NC(=O)CC[C@H](N)C(=O)O)C(=O)NCC(=O)O [Darinaparsin] (first compound 0.01 µM, partner dose 0.4 µM) – cleaved PARP positive nuclei fraction [%]: 291
# Nc1ccn([C@@H]2O[C@H](CO)[C@@H](O)C2(F)F)c(=O)n1 [gemcitabine] + C[As](C)SC[C@H](NC(=O)CC[C@H](N)C(=O)O)C(=O)NCC(=O)O [Darinaparsin] (first compound 0.0004 µM, partner dose 0.4 µM) – cleaved PARP positive nuclei fraction [%]: 235
